Results from patent publication US20050048622A1 (Genentech, published 2005).
Results are given in words; binding and its absence hold for the method and conditions named. For some of these results: Binding seen in cells or lysates may run through a third protein. Some binding calls cover weakened binding; strength is not graded here. Where a sequence is shown, tags or fusion partners need not be part of it.

Key:
human ErbB4 receptor [1] = target: T1, human ErbB4 receptor (human, UniProt Q15303 26-1308); test: FACS on K562^erbB4 cells, anti-gD detection
T1 construct: whole, on cells; also called HER4; K562^erbB4 cells

human ErbB4 receptor [2] = target: T1, human ErbB4 receptor; test: summing up of the FACS and plate assays
ErbB4.Fc [3] = target: T2, ErbB4.Fc (UniProt Q15303); test: co-immunoprecipitation in vitro
T2 sequence (looked up): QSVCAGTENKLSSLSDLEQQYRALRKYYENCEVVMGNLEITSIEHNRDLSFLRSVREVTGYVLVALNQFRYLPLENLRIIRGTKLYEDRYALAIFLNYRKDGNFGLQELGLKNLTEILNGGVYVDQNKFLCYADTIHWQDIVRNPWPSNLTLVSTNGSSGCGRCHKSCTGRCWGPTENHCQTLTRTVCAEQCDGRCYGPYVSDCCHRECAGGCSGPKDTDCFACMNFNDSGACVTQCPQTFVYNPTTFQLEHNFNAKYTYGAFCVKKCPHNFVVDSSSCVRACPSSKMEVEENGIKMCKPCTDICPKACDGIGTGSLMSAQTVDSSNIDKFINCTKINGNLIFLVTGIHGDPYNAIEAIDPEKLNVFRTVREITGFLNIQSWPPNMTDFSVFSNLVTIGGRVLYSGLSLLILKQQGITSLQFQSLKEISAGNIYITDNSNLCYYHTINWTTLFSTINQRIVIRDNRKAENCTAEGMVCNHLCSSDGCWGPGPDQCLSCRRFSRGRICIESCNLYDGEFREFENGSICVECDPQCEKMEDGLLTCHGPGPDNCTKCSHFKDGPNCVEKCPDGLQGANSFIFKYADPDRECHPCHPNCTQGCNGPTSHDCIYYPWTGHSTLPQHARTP

ErbB4.Fc [4] = target: T2, ErbB4.Fc; test: competition against ^125I-NRG3^EGF.Fc on immobilized soluble ErbB4 receptor

binding (human ErbB4 receptor [1]): binds | binding (human ErbB4 receptor [2]): binds | binding (ErbB4.Fc [3]): binds | binding (ErbB4.Fc [4]): binds
B1: NRG3^EGF.Fc (Fc fusion, not shown: small tags and cut ends; a dimerising Fc or GST)
chain: ERSEHFKPCRDKDLAYCLNDGECFVIETLTGSHKHCRCKEGYQGVRCDQFLPKTDSILSDP
modifications: radio-iodinated (^125I, lactoperoxidase method) where used as tracer
